Experimental data published in PMC7324939.
These are yes or no findings as the source states them, for the method shown. Binding can be weak; no strength is given. For some assays here: Binding seen in cells or lysates may run through a third protein. For some assays here: Tags and fused reporters may be left off the sequences shown.

How the values were obtained:
[1] = target: IbBT4 (sweetpotato BTB-TAZ domain protein), pBD-IbBT4 bait (sweetpotato (Ipomoea batatas (L.) Lam.)); experiment: two-hybrid; pBD-IbBT4 bait and pAD-BEE2 prey in Y2H Gold yeast; growth and blue colour on SD/-Trp/-His/-Leu/-Ade/X-a-Gal plates, 30°C, 5-8 days
[2] = target: IbBT4 in pSPYNE-35S (BiFC fusion with the N-terminal part of YFP) (sweetpotato (Ipomoea batatas (L.) Lam.)); experiment: split reporter; BiFC: IbBT4 in pSPYNE-35S and BEE2 in pSPYCE-35S, agroinfiltrated N. benthamiana leaves, YFP signal by confocal microscopy after 2 days

B1: AtBEE2 (BR-ENHANCED EXPRESSION 2 of Arabidopsis), pAD prey (protein, UniProt Q93VJ4 1-304)
chain: MDLSVLDRLKWLQQQQMVSPEFLQILGSDGREELKRVESYLGNNNDELQSFRHFPEFGPDYDTTDGCISRTSSFHMEPVKNNGHSRAITLQNKRKPEGKTEKREKKKIKAEDETEPSMKGKSNMSNTETSSEIQKPDYIHVRARRGEATDRHSLAERARREKISKKMKCLQDIVPGCNKVTGKAGMLDEIINYVQSLQQQVEFLSMKLSVINPELECHIDDLSAKQFQAYFTGPPEGDSKQSIMADFRSFPLHQQGSLDYSVINSDHTTSLGAKDHTSSSWETHSQCLYNSLRTDSVSNFFSLK
**Q.** B1 was tested. Which binding [1] did it give?
**A.** Its binding is “binds”.

B2: AtBEE2 in pSPYCE-35S (BiFC fusion with the C-terminal part of YFP) (protein, UniProt Q93VJ4 1-304)
chain: B1 chain
**Q.** For B2, which binding [2] is on record?
**A.** Its binding is “binds”.
